Experimental data as given in EP4477666A1.
These are yes or no findings as the source states them, for the method shown. A result given as binding can be weak or reduced; the word gives no strength.

Columns and labels:
Experiment in all cases: Table 1, target and cross-reactivity (immunofluorescence, Figure 1)
[1] = molecular target: Xenopus Nup214·Nup88·Nup62 coiled coil trimer (Xenopus)
Xenopus Nup358 (Xenopus) = molecular target: Xenopus Nup358 (Xenopus)
[2] = molecular target: Xenopus Nup35 RRM domain (Xenopus)

B1: Re3E01 (VHH)
VHH: QVQLVESGGGLVQPGGSLRLSCAASGFTFTDYLMAWYRQAPGNQRQLVAYITSDGSTVYASSARGRFTISRDNAKNTVTLQMNSLLLDDTAVYYCSAKSGLKDYYGQGTQVTVSS
binding [1]: binds

B2: xhNup358-Nb2t (VHH)
VHH: QVQLVESGGGLVQPGGSLRLSCAASGRPLSDYAMGWFRQAPGKEREFVAAISWKGGETFYAGSVKGRFTISRDDAKNSLYLQMNNLKLEDTAEYSCAAVLGSPHYSGTHYYPAEYDYWGQGTQVTVSS
binding (Xenopus Nup358 (Xenopus)): binds

B3: xhNup35-Nb1t (VHH)
VHH: QVQLVESGGGLVQAGGSLRLSCVGTGNISSAYTMAWYRQAAGKEREVVAGILNGGSTHYADSVKGRFTISRDNAKNTVYLQMNSLQPEDTGVYCCHVVIESTRFVYDHYWGQGTRVTVSS
binding [2]: binds
